From patent US20140363422A1 (IMMUNOQURE, published 2014)
Results are given in words; binding and its absence hold for the method and conditions named. Some entries that bind do so weakly or less than the wild type.

T1: human IL-22 (human, UniProt Q9GZX6 34-179)
T1 sequence (looked up): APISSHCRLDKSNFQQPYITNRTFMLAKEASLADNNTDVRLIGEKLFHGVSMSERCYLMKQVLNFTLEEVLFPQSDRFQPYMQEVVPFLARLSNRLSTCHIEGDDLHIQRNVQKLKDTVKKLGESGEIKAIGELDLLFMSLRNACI

T2: m17F (Mus musculus) (UniProt Q7TNI7)
T2 sequence (cytokine chain, looked up): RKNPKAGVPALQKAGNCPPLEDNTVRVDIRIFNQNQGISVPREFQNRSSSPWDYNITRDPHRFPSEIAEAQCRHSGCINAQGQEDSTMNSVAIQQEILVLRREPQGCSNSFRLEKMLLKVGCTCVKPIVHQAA

T3: 74-179 aa
T3 sequence: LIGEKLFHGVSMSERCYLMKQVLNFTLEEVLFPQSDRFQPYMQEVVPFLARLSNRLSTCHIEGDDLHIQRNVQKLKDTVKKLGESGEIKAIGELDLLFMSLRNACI

B1: IL-22 specific antibody 51G4 (antibody, human IgG2, lambda, V domains shown)
VH: EVQLVQSGAEVKKPGASVKVSCKTSGYKFALYDIHWVRQAPGQGLEWMGWINAANGDTEYSQKFEGRVTITRDTSATTVYMELNSLTYGDTAVYYCAREEGLYNWFDPWGQGTLVTVSS
VL: SYELTQDPAVSVALGQTVRITCQGDSLRIYYANWYQQKPGQAPVLVIYGKSNRPSGIPDRFSASSSGNTASLTITGAQAEDEADYYCNSRDSSDKHPVPFGGGTKLTVLS
notes: also called a-IL-22-51G4
B2: IL-17F specific antibody 9A2 (antibody, human IgG1, kappa, V domains shown)
VH: EVQLEESGGGLVQPGGSLRLSCAASGFPFSNYEMNWVRQAPGKGLEWISYISVSGGPAHYADSVKGRFTISRDDATKSLFLQMNRLRADDTAVYYCVRREYVTGRNYNYYPYMDVWGTGTTVTVSP
VL: DIQMTQSPSSLSASVGDRVTITCRASQTISDYLNWYQHKPGEAPKLLIYSASTLQRGVPSRFSGSGSGTDFVFTISSLQSDDFATYYCQQTSSTALTFGGGTKVEVKR
notes: also called a-IL17-9A2
B3: IL-22 specific antibody 35G11 (antibody, human IgG4, lambda, V domains shown)
VH: QVQLVQSGSELRRPGASVNISCKASGYGFNTYAMNWVRQAPGQGPEWMGWINTDTGDPTYAQGFTGRFAFFLDTSASTAFLQITRLTGEDTAVYFCARTRNNWNGVYYHYSGLDVWGQGTTVTVSS
VL: QSVLTQPPSASGTPGQTVTISCSGSSPNLGDNYVYWYHQVPGTAPKLLIFRNTQRPSGVTDRFSGSKYGTSASLAISDLRSDDEGDFYCASWDDRLSRLVFGGGTKLTVLG
notes: also called a-IL-22-35G11; aIL-22 35G11

How the values were obtained:
human IL-22 [1] = target: T1, human IL-22; experiment: ELISA binding
human IL-22 [2] = target: T1, human IL-22; experiment: sandwich ELISA: h antibody coated, IL-22 captured, detection with hm antibody
human IL-22 [3] = target: T1, human IL-22; experiment: ELISA on coated IL-22, antibody with mouse Fc (hm) detected by HRP-conjugated secondary antibody
human IL-22 [4] = target: T1, human IL-22; experiment: PepStar peptide microarray with co-spotted full-length IL-22, fluorescently labelled anti-Fc secondary antibody
m17F (Mus musculus) = target: T2, m17F (Mus musculus); experiment: ELISA, titration of antibody 9A2 on recombinant murine IL17F
human IL-22 [5] = target: T1, human IL-22; experiment: SPR (ProteOn XPR36)
human IL-22 [6] = target: T1, human IL-22; experiment: SPR (ProteOn XPR36), figure legend
74-179 aa = target: T3, 74-179 aa; experiment: luciferase immunoprecipitation (LIPS) with crude extract of HEK 293 cells expressing the luciferase fusion
human IL-22 [7] = target: T1, human IL-22; experiment: SPR (ProteOn XPR36), antibody captured by anti-human IgG, IL-22 injected at 100, 33.33, 11.11, 3.70, 1.23 and 0 nM

| Binder | binding (human IL-22 [1]) | binding (human IL-22 [2]) | binding (human IL-22 [3]) | binding (human IL-22 [4]) | binding (m17F (Mus musculus)) | binding (human IL-22 [5]) | binding (human IL-22 [6]) | binding (74-179 aa) | binding (human IL-22 [7]) |
| --- | --- | --- | --- | --- | --- | --- | --- | --- | --- |
| B1 | binds | binds | binds | binds |  |  |  |  |  |
| B2 |  |  |  |  | no binding (tested: 1 µg/ml) |  |  |  |  |
| B3 | binds | binds | binds | binds |  | binds | binds | binds | binds |
